Some results were stated once for a whole list of compounds, not compound by compound.
Tested on: LgTrip 3546
Test: Titration of individual labeled antibody conjugates with LgTrip 3546 (no analyte pair)
Type: biochemical
Conditions: concentrations above 100 ng/ml, 1 μM LgTrip 3546, N205

SulfoSE-PEG3-SmTrip9 Pep693 (GRMLFRVTINSWR; left off: things letters cannot carry; large carriers; small tags and cut ends) [HW-0984]
light output of individual antibody conjugates: over 1,000 RLU

From US20200386748A1, “COMPOSITIONS AND METHODS FOR ANALYTE DETECTION USING BIOLUMINESCENCE” (Promega Corporation, priority 2019, published 2020)
